In the test the test system is brain tissue of AD-induced rats. The test can be described thus: Brain oxidative stress markers. In kind it is in vivo, rat.

SMILES strings stand for the structures.

On to `COc1cc2c(cc1OC)C(=O)C(CC1CCN(Cc3ccccc3)CC1)C2` (stereo not drawn) [Donepezil, reference compound], for which, where the note is “AD-induced rats”, the GSH % improvement worked out at 35.03% and the MDA % improvement stood at 90.64%. Where the note is “AD-induced rats, n = 8”, this molecule gave a GSH of 23.99 ± 2.00 mg per g tissues and an MDA of 22.43 ± 2.00 mg per g tissues. Also, for the setting “vs AD group”, the “GSH % change to disease” value is given as 76.40% and the “MDA % change to disease” value stood at 32.19%.

(Values after article PMC10280131 (RSC Advances, 2023).)
